Results published in patent US20020032228A1 (priority 2000, published 2002).

Target: Adenylate Cyclase (Bordetella pertussis, UniProt P0DKX7)
Assay type: biochemical
Conditions: enzyme 4.6 nmoles; imidazole 2.7 mmoles, PGE2-Histidine adduct 52 μmoles, celecoxib 0.52 mmoles

COc1ccc(-n2nc(C(F)(F)F)cc2-c2ccc(Cl)cc2)cc1 [SC560, reference compound]
inhibition of adenylate cyclase enzyme activity (FIG. 12): absence of adenylate cyclase inhibition
